Laboratory results as given in PMC11180911.

Amino acid sequences for entries named in this document (tags omitted). A change or cut given only in a name is not applied to a line headed by its entry.
UniProt P15291: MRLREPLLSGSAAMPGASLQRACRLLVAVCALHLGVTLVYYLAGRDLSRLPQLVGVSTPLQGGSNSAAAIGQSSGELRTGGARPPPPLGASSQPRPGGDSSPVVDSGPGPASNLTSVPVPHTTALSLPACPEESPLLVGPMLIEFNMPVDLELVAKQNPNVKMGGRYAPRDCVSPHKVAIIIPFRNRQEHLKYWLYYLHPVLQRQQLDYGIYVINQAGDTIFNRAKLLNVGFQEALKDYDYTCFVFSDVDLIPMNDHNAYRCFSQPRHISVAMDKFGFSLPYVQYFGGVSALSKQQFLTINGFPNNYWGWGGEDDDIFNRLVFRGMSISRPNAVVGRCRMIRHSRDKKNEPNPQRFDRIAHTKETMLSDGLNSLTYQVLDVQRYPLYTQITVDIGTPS
UniProt P0A6F5: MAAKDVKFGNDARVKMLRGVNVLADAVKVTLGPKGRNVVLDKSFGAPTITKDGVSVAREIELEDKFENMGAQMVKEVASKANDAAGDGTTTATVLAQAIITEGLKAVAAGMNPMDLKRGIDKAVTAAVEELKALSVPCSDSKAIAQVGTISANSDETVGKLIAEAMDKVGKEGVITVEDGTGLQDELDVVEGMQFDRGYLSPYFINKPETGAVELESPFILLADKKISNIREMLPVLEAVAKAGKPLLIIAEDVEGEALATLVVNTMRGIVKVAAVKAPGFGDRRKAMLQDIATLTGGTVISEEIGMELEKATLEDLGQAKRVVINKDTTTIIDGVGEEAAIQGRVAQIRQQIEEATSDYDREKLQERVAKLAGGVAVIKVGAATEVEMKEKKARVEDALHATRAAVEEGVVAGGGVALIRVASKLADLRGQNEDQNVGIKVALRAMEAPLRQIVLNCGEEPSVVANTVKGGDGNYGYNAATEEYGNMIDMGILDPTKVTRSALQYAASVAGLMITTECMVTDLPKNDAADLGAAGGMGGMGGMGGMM

What was measured:
[1] = molecular target: Human Beta-1,4-galactosyltransferase 1 (B4Galt1) (human) (UniProt P15291); assay: affinity purification with mass spectrometry; His-tagged POI produced with CyDisCo (strains not given; Fig. S7); soluble lysate on HisPur Cobalt resin; eluate on SDS-PAGE
[2] = molecular target: Human Beta-1,4-galactosyltransferase 1 (B4Galt1) (human) (UniProt P15291); assay: affinity purification with mass spectrometry; His-tagged POI produced in SHuffle strains (SHuffle T7 Express, SHuffle T7) in rich autoinduction media; soluble lysate on HisPur Cobalt resin, gravity flow; eluate on SDS-PAGE; co-eluted band excised and identified by MALDI-TOF MS

Q: For “molecular chaperone GroEL (from UniProt P0A6F5 1-548)”, which binding [1] is on record?
A: Its binding is “binds”.

Q: And the binding [2]?
A: The binding was “binds”.

No constants are given. Whether binding was seen depends on the method and setting. Binding seen in cells or lysates may run through a third protein. These calls come from enrichment with a bait or labelling near it, and not all partners need be listed.
